A negative result means that nothing was seen under these conditions. For at least one entry, the source does not settle the construct or the ends of the probe.

Sequences of proteins named here, by UniProt entry; tags and fusion partners are left off. A change or cut given only in a name is not applied to a line headed by its entry.
UniProt P26599: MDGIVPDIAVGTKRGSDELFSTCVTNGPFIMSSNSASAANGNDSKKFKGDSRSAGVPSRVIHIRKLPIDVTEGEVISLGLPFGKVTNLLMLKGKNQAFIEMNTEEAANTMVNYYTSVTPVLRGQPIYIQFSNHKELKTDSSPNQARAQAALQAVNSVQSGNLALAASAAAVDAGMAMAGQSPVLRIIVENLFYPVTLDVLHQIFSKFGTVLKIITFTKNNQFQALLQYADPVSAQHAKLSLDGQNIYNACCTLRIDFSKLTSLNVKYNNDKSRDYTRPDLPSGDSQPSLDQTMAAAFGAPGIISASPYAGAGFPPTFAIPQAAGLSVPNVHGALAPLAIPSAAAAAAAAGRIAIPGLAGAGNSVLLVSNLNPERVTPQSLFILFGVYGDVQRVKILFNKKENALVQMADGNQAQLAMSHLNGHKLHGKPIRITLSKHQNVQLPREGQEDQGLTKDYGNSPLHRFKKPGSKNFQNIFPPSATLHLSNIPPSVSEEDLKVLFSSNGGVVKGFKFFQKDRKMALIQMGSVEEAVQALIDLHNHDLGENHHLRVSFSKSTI

The series concerns the target PTBP1 (hsPTBP1) (Homo sapiens) (UniProt P26599). The series is described as follows: EMSA. The following applies: EMSA in RBB: 10 mM sodium cacodylate pH 7.0, 100 mM NaCl, 1 mM MgCl2, 1 mM DTT, 0.1 ug/uL BSA, 0.1 ug/uL yeast tRNA, 0.4 U/uL RNasin, 1 U/uL heparin; recombinant protein; residues 1-557; protein details: 6xHis (pET21A+); label: fluorescent; probe letters rebuilt from the primers and the genome.

Take “GGGCCUCACACUUAGGCUAGACAAGAACUGUAAUGAGGGAUAAUAAUUGACCAGAUGACAUUUUACAAAAGAUUCAAGUUUCUUCUUCUUCAUUCCUUUUUUUUAAUUGAGUCCAGUAAACCGUAUGCGAAGCACUGUGUUAAAUACCUUGAUCUACCUUAUCUCAGUGGUCCUCGACUGAAUCGCCUUGUGUAACUUAUUAAAAAUAUGUUUUCCUGGAUGCCAGCUUGUGUUGGAAGGGAGCCAGGAAAAU [FRAGT4]”: the Kd was determined as 0.15 µM.
Still for that read-out and setting: then “GGGGCCUUAUCCCAUUUCUUCCUCAUAAAAAUCUUGAGAAGUCUCAGUAAUUGUAAAAGAAGAUAAAUUGGAAGAACAAAAAUAGCUUUUCAGGCACUCUAUUCUGUCUAUACUAUGAUCAUGAAGGUAUAAGGAGUGUGUUUCUGAAUUCAAUUGAUUUGAAUAGAUGAAGUCCUAGGCCUUCAUUUUUUCUUUUCUCUGGUUCCUCUCUGCAGUCUCCUUUCAGCCUGCUUCA [FRAGT6]”, with 0.06 µM.
The same measure, in the same setting: as for “GGGGUUGCUUUUGUGGAUGUGUGAUUUUAAUUUUCAAUAAACUUUUGCAUCUUGGUUUAUCUUGCAGUUUUUUUGUUUCUGUCUCUCUCACUUUUUUUCCACUAAAUACUAGAAUAUUCUCAUGUAAGUGCUUGAAGUAGCAUGUGUAGGUCU [CPA2]”, the figure is 0.06 µM.
Regarding “GGGUGGAAGGGAGCCAGGAAAAUGCAUUUUUAUAAGUUUCACAAGUGAUUCUGAUGUUUAUUUCUGGUUAACUACUAUAGCCUUAUCCCAUUUCUUCCUCAUAAAAAUCUUGAGAAGUCUCAGUAAUUGUAAAAGAAGAUAAAUUGGAAGAACAAAAAUAGCUUUUCAGGCACUCUAUUCUGU [FRAGT5]”, the binding result is on record as “no binding”.
As for “GGGUAUUUCUGGCAUCCUCGUGGUGUAAAUAAUUUCUUAAUUAUGCAAAAAAUUGCUUUCUUGGGUUUGAUAUAUGCAUUUAUAGGCCGAGUUUUUUACUCAAAGGAUUAAGGUAUUUAUCCAUCUCAAUCUGGGAAUAUCCAAAAUACUCAUUAAACAGUUCUUUGUAAAUGCCUGAUGCCACAGGCCCCAUUCUGAUAAUAUCAUAUUUCUCUAUACCUCACACUUAGGCUAGACAAGAAC [FRAGT3]”, the Kd was 0.15 µM.

Values taken from PMC10035508.
